Results taken from paper PMC7996170, “Novel Method for Quantifying AhR-Ligand Binding Affinities Using Microscale Thermophoresis” (Biosensors, 2021).
No constants are given. Whether binding was seen depends on the method and setting. Some entries that bind do so weakly or less than the wild type.

Chains of the proteins cited; added tags and fusions are not shown. Lines headed by an entry give the natural chain unless they say otherwise; changes in a name come on top. A line that says so, or that is headed by a name, gives the form on record, which may keep a tag or linker. Residues count along the entry.
murine aryl hydrocarbon nuclear translocator, residues 85 to 465 (mARNT 85-465, ∆274–297, C256S, ∆351–358) (P53762, form named): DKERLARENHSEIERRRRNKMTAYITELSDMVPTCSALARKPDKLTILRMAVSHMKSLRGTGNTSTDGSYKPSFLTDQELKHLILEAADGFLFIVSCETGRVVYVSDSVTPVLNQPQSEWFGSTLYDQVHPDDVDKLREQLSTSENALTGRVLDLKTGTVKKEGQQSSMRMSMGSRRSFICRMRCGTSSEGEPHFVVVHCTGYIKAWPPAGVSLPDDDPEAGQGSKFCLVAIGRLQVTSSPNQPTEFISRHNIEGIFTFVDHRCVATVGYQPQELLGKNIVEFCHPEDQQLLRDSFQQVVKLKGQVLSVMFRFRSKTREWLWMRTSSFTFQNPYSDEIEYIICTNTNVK
UniProt P35869, residues 23-475: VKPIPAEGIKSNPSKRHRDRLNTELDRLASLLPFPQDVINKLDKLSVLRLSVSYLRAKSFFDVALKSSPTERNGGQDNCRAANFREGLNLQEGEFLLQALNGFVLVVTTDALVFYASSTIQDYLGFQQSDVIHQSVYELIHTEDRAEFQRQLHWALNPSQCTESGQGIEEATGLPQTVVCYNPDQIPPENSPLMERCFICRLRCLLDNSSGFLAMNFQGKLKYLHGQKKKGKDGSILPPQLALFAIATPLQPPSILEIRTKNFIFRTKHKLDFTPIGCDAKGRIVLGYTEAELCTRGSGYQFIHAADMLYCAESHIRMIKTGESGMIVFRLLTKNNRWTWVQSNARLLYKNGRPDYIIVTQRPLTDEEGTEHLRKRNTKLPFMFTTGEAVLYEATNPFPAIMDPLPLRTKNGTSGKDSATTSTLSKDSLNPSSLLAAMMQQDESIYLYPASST

Biological target: murine aryl hydrocarbon nuclear translocator, residues 85 to 465 (mARNT 85-465, ∆274–297, C256S, ∆351–358) (mouse) (UniProt P53762)
Assay: co-purification (IMAC, heparin, SEC); both proteins co-expressed in E. coli BL21(DE3); HisTALON column, His6-tags removed with HRV 3C, HiTrap Heparin HP, then Superdex 200 10/300 GL in 20 mM HEPES pH 8.0, 200 mM NaCl, 5% glycerol, 5 mM DTT; fractions analysed by SDS-PAGE

binding: binds
Substance: human aryl hydrocarbon receptor, bHLH-PAS A-PAS B fragment (hAhR 23-475) (from UniProt P35869 23-475) (domain or fragment)
